Experimental data reported in US20070293472A1, “Novel 14 and 15 Membered Ring Compounds” (Glaxo Group Limited, priority 2003, published 2007).
Some of these results come from one statement about several compounds together.

What was measured:
Test in all cases: MIC, standard broth dilution method in microtitre
H. influenzae ATCC 49247 = type: cell-based, Haemophilus influenzae
Protocol: (§1) Using a standard broth dilution method in microtitre, compounds were tested for antibacterial activity. The compounds in the above examples gave minimum inhibitory concentrations (MICs) less than 1 microgram per millilitre against erythromycin-sensitive and erythromycin-resistant strains of Streptococcus pneumoniae and Streptococcus pyogenes.
(§2) In addition, the MIC (μg/mL) of test compounds against various organisms was determined including:
(§3) S. aureus Smith ATCC 13709, S. pneumoniae SP030, S. pyogenes 3565, E. faecalis ATCC 29212, H. influenzae ATCC 49247, M. catarrhalis ATCC 23246.

S. pyogenes 3565 = type: cell-based, Streptococcus pyogenes
Protocol: as §1, §2, §3

E. faecalis ATCC 29212 = type: cell-based, Enterococcus faecalis
Protocol: as §1, §2, §3

[1] = tested on: S. aureus Smith ATCC 13709; type: cell-based, Staphylococcus aureus
Protocol: as §1, §2, §3

S. pneumoniae SP030 = type: cell-based, Streptococcus pneumoniae
Protocol: as §1, §2, §3

[2] = tested on: M. catarrhalis ATCC 23246; type: cell-based, Moraxella catarrhalis
Protocol: as §1, §2, §3

[3] = tested on: erythromycin-resistant strains of Streptococcus pyogenes; type: cell-based
Protocol: as §1

[4] = tested on: erythromycin-resistant strains of Streptococcus pneumoniae; type: cell-based
Protocol: as §1

Row | Substance | MIC (H. influenzae ATCC 49247) [µg/mL] | MIC (S. pyogenes 3565) [µg/mL] | MIC (E. faecalis ATCC 29212) [µg/mL] | MIC [1] [µg/mL] | MIC (S. pneumoniae SP030) [µg/mL] | MIC [2] [µg/mL] | MIC [3] [µg/mL] | MIC [4] [µg/mL]
1 | 4″-O-{3-[3-(3-Carboxy-1,4-dihydro-1-ethyl-6-fluoro-4-oxo-7-quinolinyl propylamino]propionyl}-azithromycin-11,12-carbonate [Example 3] | ≤ 2 | ≤ 1 | ≤ 1 | ≤ 1 | ≤ 1 | ≤ 2 | – | –
2 | 4″-O-{3-[3-(3-Carboxy-1,4-dihydro-1-ethyl-4-oxo-6-quinolinyl) propylamino]propionyl}-6-O-methylerythromycin A [Example 4] | ≤ 2 | ≤ 1 | ≤ 1 | ≤ 1 | ≤ 1 | ≤ 2 | ≤ 0.25 | ≤ 0.25
